Data as given in PubChem BioAssay AID1259254 (NCATS, 2017)

Purpose: 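Genome-wide screen for genes that prevent DNA re-replication in cancer cells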 (primary screen)
Cell system: human HCT116 colorectal cancer cells
Reagents: single siRNA against human genes
Duration: 3 days
Detection: 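Nuclei stained with Hoechst and imaged; cell-cycle phase assigned by DNA content; G2 share scaled per plate, non-targeting siRNA 0%, GMNN siRNA 100%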
Direction: G2 robust z-score and G2 cells, % of GMNN control: higher = more G2 cells, more excess DNA replication; raw share of cells in G2: higher = larger share of cells with G2 DNA content
Hit rule: 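Active siRNAs have a G2 robust z of 5 or more median absolute deviations over the median, which in these data means about 38% or higher of GMNN control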
This is an unselected part of about 59,000 reagents tested. About 1,550 of them (2.6%) were called active. 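G2 share is only a proxy for re-replication; each gene was hit by three separate siRNAs, and active genes were retested.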 The raw values are shown without normalisation. The numbers tell different reagents against one gene apart. Reagent sequences are not shown. The record does not give: the amount of reagent.

gene	reagent	G2 robust z-score	G2 cells, % of GMNN control	raw share of cells in G2 (%)	outcome
MTERF2 (mitochondrial transcription termination factor 2)	1	-0.713	-2.05	3.59	inactive
MTERF2 (mitochondrial transcription termination factor 2)	2	-0.162	1.83	5.1	inactive
MTERF2 (mitochondrial transcription termination factor 2)	3	-0.25	1.21	2.71	inactive
PPP2R3A (protein phosphatase 2 regulatory subunit B''alpha)	1	0.75	8.25	7.48	inactive
PPP2R3A (protein phosphatase 2 regulatory subunit B''alpha)	2	0.157	4.07	5.53	inactive
PPP2R3A (protein phosphatase 2 regulatory subunit B''alpha)	3	0.106	3.71	4.61	inactive
BORCS6 (BLOC-1 related complex subunit 6)	1	-0.619	-1.39	2.73	inactive
BORCS6 (BLOC-1 related complex subunit 6)	2	0.455	6.17	5.81	inactive
BORCS6 (BLOC-1 related complex subunit 6)	3	-0.218	1.44	4.88	inactive
KCTD1 (potassium channel tetramerization domain containing 1)	1	-0.0767	2.43	3.93	inactive
KCTD1 (potassium channel tetramerization domain containing 1)	2	3.16	25.2	11.9	inactive
KCTD1 (potassium channel tetramerization domain containing 1)	3	0.836	8.85	6.63	inactive
FANCD2OS (FANCD2 opposite strand)	1	-0.0271	2.78	5.2	inactive
FANCD2OS (FANCD2 opposite strand)	2	2.15	18.1	8.72	inactive
FANCD2OS (FANCD2 opposite strand)	3	-0.739	-2.23	1.17	inactive
ACO2P1 (ACO2 pseudogene 1)	1	-0.947	-3.7	1.86	inactive
ACO2P1 (ACO2 pseudogene 1)	2	-0.522	-0.706	3.35	inactive
ACO2P1 (ACO2 pseudogene 1)	3	-0.0455	2.65	4.42	inactive
ALG1 (ALG1 chitobiosyldiphosphodolichol beta-mannosyltransferase)	1	-0.161	1.83	7.23	inactive
ALG1 (ALG1 chitobiosyldiphosphodolichol beta-mannosyltransferase)	2	1.38	12.7	8.97	inactive
ALG1 (ALG1 chitobiosyldiphosphodolichol beta-mannosyltransferase)	3	-0.794	-2.62	3.24	inactive
OR51F1 (olfactory receptor family 51 subfamily F member 1)	1	0.666	7.65	5.64	inactive
OR51F1 (olfactory receptor family 51 subfamily F member 1)	2	-0.38	0.294	3.68	inactive
OR51F1 (olfactory receptor family 51 subfamily F member 1)	3	-0.81	-2.73	2.19	inactive
TMPRSS13 (transmembrane serine protease 13)	1	-0.794	-2.62	4.49	inactive
TMPRSS13 (transmembrane serine protease 13)	2	2.67	21.7	11.6	inactive
TMPRSS13 (transmembrane serine protease 13)	3	-0.355	0.472	4.44	inactive
NRBP2 (nuclear receptor binding protein 2)	1	1.17	11.2	7.26	inactive
NRBP2 (nuclear receptor binding protein 2)	2	-1.21	-5.52	3.18	inactive
NRBP2 (nuclear receptor binding protein 2)	3	3.5	27.6	14.2	inactive
MPPED1 (metallophosphoesterase domain containing 1)	1	-0.822	-2.82	3.98	inactive
MPPED1 (metallophosphoesterase domain containing 1)	2	-0.54	-0.833	3.78	inactive
MPPED1 (metallophosphoesterase domain containing 1)	3	-0.418	0.0257	3.53	inactive
MPPED1 (metallophosphoesterase domain containing 1)	4	0.239	4.65	5.31	inactive
MPPED1 (metallophosphoesterase domain containing 1)	5	0.535	6.73	5.25	inactive
MPPED1 (metallophosphoesterase domain containing 1)	6	0.064	3.42	4.89	inactive
AFF1 (ALF transcription elongation factor 1)	1	-0.39	0.227	3.55	inactive
AFF1 (ALF transcription elongation factor 1)	2	-0.883	-3.25	3.33	inactive
AFF1 (ALF transcription elongation factor 1)	3	-1.05	-4.4	1.51	inactive
KRTAP10-10 (keratin associated protein 10-10)	1	8.71	64.2	26.1	active
KRTAP10-10 (keratin associated protein 10-10)	2	0.735	8.14	6.82	inactive
KRTAP10-10 (keratin associated protein 10-10)	3	0.306	5.12	6.25	inactive
LAMTOR2 (late endosomal/lysosomal adaptor, MAPK and MTOR activator 2)	1	1.65	14.6	9.43	inactive
LAMTOR2 (late endosomal/lysosomal adaptor, MAPK and MTOR activator 2)	2	-0.388	0.241	4.64	inactive
LAMTOR2 (late endosomal/lysosomal adaptor, MAPK and MTOR activator 2)	3	6.34	47.6	18.3	active
POLR3E (RNA polymerase III subunit E)	1	0.174	4.19	6.08	inactive
POLR3E (RNA polymerase III subunit E)	2	-0.799	-2.65	5.27	inactive
POLR3E (RNA polymerase III subunit E)	3	-0.548	-0.891	4.12	inactive

Records listed so far whose gene name starts with N or n:
gene	reagent	G2 robust z-score	G2 cells, % of GMNN control	raw share of cells in G2 (%)	outcome
NRBP2 (nuclear receptor binding protein 2)	1	1.17	11.2	7.26	inactive
NRBP2 (nuclear receptor binding protein 2)	2	-1.21	-5.52	3.18	inactive
NRBP2 (nuclear receptor binding protein 2)	3	3.5	27.6	14.2	inactive
